We go through 24 substances from paper PMC11316025.

Amino acid sequences for entries named in this document (tags omitted). A change or cut given only in a name is not applied to a line headed by its entry. Residues count along the entry.
UniProt Q8WWW0: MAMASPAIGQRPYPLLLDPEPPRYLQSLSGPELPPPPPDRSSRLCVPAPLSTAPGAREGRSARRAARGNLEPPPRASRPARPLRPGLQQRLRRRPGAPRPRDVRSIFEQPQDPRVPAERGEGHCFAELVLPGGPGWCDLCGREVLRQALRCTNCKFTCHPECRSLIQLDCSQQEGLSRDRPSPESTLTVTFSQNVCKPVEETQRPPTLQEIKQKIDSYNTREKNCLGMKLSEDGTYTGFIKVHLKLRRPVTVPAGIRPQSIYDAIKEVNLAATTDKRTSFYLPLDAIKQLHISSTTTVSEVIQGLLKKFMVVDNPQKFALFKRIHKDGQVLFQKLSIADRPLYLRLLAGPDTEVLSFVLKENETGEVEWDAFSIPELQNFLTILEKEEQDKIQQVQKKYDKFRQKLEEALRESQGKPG
UniProt Q96S79: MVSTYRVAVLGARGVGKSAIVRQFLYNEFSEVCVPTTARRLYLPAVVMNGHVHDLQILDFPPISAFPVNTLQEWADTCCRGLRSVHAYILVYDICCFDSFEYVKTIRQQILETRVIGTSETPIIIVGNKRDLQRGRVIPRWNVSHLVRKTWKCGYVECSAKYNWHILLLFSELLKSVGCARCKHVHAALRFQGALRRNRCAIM
UniProt Q8IXI2, residues 1-180: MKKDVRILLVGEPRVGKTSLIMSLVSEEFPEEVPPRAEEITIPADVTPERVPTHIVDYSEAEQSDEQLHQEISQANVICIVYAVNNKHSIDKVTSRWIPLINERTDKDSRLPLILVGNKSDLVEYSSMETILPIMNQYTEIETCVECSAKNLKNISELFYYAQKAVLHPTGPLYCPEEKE
UniProt Q9HBH0: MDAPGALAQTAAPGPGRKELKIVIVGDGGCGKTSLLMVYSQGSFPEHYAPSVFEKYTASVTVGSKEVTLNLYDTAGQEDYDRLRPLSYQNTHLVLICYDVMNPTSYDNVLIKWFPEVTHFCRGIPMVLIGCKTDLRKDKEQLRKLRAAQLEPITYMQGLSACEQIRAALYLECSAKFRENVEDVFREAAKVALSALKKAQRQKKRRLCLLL
UniProt P55040: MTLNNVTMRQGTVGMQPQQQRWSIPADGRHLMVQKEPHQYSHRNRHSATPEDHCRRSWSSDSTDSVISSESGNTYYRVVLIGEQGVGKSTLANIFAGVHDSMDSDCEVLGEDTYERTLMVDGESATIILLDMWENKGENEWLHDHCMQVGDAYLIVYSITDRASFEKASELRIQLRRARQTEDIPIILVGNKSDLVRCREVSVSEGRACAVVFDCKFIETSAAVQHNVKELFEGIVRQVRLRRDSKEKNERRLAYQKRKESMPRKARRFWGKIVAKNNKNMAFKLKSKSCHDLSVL
UniProt P10301: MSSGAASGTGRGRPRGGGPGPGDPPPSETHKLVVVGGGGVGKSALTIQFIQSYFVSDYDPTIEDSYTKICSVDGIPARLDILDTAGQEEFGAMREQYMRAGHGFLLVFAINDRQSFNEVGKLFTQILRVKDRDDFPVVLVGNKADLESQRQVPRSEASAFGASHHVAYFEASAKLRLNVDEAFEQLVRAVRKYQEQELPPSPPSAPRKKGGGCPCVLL
UniProt P55042: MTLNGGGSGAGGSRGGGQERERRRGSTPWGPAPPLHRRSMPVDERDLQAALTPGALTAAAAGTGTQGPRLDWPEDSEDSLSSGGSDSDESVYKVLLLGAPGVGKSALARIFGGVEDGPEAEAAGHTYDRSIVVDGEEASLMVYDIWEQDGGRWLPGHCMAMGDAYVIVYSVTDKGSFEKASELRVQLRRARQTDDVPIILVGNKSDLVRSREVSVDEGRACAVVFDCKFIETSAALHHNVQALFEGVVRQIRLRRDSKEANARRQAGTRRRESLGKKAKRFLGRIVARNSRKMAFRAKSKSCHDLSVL
UniProt Q96D21: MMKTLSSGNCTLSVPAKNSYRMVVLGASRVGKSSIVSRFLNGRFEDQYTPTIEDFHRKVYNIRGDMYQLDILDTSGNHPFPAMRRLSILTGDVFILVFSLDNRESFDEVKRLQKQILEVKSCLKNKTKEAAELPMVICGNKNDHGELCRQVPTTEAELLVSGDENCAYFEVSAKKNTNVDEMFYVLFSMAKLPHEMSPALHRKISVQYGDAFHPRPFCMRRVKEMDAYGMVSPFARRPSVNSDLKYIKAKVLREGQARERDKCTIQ
UniProt A6NH57: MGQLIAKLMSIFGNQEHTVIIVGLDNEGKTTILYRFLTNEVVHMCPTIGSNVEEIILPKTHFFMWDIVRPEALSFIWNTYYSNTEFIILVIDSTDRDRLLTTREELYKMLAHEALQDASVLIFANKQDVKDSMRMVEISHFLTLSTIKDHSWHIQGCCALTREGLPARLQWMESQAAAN
UniProt Q9NXU5: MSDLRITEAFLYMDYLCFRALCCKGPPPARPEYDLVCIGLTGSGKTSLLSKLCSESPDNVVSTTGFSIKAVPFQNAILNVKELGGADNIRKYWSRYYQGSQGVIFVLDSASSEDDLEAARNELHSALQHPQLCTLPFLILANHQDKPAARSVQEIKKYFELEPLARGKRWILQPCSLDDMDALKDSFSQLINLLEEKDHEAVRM
UniProt Q8IXI1, residues 1-180: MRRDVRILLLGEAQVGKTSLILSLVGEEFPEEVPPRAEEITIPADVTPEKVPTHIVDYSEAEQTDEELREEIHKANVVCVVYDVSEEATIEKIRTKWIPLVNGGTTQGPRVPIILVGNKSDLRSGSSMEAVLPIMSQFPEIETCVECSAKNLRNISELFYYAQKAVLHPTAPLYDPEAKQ
UniProt P56559: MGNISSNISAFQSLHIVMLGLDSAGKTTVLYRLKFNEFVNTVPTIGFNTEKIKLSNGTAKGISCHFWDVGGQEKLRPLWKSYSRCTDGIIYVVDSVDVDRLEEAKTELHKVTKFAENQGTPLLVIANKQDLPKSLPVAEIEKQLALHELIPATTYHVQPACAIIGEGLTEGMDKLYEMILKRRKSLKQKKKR
UniProt O75628: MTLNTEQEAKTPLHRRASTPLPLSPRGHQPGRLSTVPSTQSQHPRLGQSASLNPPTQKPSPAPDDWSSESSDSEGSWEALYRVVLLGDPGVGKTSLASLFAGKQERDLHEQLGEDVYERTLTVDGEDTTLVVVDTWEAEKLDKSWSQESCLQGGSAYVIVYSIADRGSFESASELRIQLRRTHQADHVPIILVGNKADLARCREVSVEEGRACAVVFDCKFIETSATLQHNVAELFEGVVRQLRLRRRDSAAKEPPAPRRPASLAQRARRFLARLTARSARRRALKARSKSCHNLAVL
UniProt Q8N8L6: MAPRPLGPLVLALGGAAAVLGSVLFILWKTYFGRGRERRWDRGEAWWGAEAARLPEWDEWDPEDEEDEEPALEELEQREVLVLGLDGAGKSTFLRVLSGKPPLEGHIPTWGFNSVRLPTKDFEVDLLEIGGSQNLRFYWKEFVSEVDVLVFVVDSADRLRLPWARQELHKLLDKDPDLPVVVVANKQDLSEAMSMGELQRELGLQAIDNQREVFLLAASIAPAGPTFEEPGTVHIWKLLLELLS
UniProt Q969Q4: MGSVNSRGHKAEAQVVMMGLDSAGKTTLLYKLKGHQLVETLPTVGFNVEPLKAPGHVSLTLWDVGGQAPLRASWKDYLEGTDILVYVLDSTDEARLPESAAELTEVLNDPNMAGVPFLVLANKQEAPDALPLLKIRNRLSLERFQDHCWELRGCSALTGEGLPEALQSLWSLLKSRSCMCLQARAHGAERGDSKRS
UniProt Q9NYN1: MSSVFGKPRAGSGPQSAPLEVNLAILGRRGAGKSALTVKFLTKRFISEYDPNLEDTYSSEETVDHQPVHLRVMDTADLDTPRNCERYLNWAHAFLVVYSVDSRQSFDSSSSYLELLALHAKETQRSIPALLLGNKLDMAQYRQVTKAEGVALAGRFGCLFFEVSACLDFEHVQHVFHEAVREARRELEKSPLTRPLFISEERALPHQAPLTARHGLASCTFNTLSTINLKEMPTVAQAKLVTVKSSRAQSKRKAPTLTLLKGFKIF
UniProt P36405: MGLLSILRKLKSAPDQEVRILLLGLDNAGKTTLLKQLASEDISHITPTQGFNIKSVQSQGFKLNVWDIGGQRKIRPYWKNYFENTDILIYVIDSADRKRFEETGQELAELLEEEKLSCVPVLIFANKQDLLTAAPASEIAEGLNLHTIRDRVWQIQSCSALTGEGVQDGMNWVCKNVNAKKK
UniProt Q92737: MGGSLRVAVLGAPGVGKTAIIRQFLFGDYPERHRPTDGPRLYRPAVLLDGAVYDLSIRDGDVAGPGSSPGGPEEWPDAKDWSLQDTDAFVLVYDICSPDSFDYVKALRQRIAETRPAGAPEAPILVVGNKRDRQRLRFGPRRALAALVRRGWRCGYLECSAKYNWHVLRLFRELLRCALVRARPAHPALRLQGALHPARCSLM
UniProt O95057: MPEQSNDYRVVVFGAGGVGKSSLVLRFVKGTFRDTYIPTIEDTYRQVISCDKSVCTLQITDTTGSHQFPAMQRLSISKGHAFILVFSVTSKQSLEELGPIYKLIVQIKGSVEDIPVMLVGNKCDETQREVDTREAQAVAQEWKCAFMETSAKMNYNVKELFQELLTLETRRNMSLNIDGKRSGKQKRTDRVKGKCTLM
UniProt Q96KC2: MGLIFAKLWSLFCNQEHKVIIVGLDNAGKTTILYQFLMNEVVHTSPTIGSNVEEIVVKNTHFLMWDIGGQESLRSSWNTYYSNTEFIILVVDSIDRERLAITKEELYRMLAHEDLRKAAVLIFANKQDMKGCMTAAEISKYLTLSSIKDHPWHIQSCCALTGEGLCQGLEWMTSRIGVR
UniProt Q9NYR9: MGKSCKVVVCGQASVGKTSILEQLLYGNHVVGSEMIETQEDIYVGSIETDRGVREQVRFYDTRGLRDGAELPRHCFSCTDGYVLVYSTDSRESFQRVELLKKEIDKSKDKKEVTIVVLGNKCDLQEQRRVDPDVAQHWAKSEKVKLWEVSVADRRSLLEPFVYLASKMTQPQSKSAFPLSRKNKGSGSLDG
UniProt Q8IYK8: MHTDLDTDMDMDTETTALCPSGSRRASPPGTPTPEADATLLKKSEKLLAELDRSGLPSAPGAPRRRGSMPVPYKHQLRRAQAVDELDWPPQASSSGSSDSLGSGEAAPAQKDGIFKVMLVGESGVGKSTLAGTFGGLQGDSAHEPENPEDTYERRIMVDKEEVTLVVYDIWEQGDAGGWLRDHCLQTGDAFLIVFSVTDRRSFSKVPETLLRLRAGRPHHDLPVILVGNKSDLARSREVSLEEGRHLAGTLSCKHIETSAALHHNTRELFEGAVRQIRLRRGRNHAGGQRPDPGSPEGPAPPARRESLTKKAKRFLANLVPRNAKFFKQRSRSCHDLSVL
UniProt Q3SXY8: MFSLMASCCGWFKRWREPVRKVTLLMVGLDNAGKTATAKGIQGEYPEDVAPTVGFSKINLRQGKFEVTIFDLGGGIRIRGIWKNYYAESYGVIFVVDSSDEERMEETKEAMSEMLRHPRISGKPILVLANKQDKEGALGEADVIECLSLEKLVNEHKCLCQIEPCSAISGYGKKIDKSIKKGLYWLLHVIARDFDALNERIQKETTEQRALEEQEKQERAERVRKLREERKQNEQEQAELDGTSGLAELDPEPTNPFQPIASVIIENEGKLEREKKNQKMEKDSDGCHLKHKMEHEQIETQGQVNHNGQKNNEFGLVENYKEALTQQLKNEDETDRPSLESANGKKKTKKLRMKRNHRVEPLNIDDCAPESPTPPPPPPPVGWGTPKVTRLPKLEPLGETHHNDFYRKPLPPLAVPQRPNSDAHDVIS

Assay [1] concerns the target GST-tagged RASSF3 RA domain (human) (UniProt Q86WH2). The assay is described as follows: pull-down; systematic screen: 2 µM purified GST-tagged RBD/RA domain (or GST alone) and glutathione beads incubated 30 min with HEK 293T lysate expressing a VENUS-tagged GTPase; Bio-Spin columns on a vacuum manifold, washed three times with lysis buffer (20 mM Tris-HCl pH 7.5, 150 mM NaCl, 5 mM MgCl2, 10% glycerol, 1% Triton X-100, 1% NP-40, 1 mM DTT); Western blot; GST-alone signal subtracted; heatmap from two replicates; only the target purified.

Assay [2] deals with T1, full-length FLAG-RASSF8 (human) (UniProt Q8NHQ8).
T1 sequence: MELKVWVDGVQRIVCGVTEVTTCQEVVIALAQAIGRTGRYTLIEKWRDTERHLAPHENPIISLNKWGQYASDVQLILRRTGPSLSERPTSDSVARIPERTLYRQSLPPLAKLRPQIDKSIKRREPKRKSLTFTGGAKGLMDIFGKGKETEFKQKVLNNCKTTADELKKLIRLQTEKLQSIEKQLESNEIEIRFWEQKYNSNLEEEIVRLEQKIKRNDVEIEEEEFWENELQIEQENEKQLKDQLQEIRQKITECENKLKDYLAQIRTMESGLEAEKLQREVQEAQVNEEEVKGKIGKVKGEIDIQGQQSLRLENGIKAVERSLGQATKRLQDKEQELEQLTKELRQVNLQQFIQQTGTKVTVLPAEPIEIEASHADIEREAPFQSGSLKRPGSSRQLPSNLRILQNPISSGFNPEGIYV
The assay is described as follows: co-IP; HEK 293T co-transfected with FLAG-tagged RASSF and VENUS-tagged GTPase; lysis in 20 mM Tris-HCl pH 7.5, 150 mM NaCl, 5 mM MgCl2, 10% glycerol, 1% Triton X-100, 1 mM DTT; anti-FLAG on Protein G Sepharose 1 h, three washes; blot with anti-GFP.

Assay [3] deals with GST-tagged RASSF8 RA domain (human) (UniProt Q8NHQ8). The assay is described as follows: pull-down; in vitro mixing: 10 µM purified GST-tagged RASSF RA domain (or GST alone) on glutathione beads incubated 2 h with 50 µM purified 6xHis-GTPase, unexchanged or exchanged with GDP, GMPPNP, GTPγS or GTP; three washes; SDS-PAGE; both purified.
Assay [4] deals with GST-tagged RASSF3 RA domain (human) (UniProt Q86WH2). Described as above.
Assay [5] addresses GST-tagged RASSF4 RA domain (human) (UniProt Q9H2L5). The description is as above.
The target is the same in assay [6]. The assay is described as follows: pull-down; systematic screen: 2 µM purified GST-tagged RBD/RA domain (or GST alone) and glutathione beads incubated 30 min with HEK 293T lysate expressing a VENUS-tagged GTPase; Bio-Spin columns on a vacuum manifold, washed three times with lysis buffer (20 mM Tris-HCl pH 7.5, 150 mM NaCl, 5 mM MgCl2, 10% glycerol, 1% Triton X-100, 1% NP-40, 1 mM DTT); Western blot; GST-alone signal subtracted; heatmap from two replicates; only the target purified.

The target of assay [7] is GST-tagged RASSF8 RA domain (human) (UniProt Q8NHQ8). Described as above.
Assay [8] concerns the target GST-tagged RASSF5 RA domain (human) (UniProt Q8WWW0). The assay is described as follows: pull-down; validation pull-downs (Fig. EV1C, Fig. 2A): recombinant purified GST-RASSF5 RA or GST alone with HEK 293T lysates expressing VENUS-tagged GTPases (activated, wild-type or dominant-negative variants); Western blot; only the target purified.
In assay [9] the target is T2, full-length FLAG-RASSF3 (human) (UniProt Q86WH2).
T2 sequence: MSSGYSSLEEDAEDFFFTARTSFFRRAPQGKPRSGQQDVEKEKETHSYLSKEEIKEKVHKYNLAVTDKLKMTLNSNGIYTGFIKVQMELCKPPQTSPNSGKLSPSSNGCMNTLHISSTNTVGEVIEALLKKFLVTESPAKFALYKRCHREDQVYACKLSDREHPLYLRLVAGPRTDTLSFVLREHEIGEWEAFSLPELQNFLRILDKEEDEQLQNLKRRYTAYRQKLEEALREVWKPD
The assay is described as follows: co-IP; HEK 293T co-transfected with FLAG-tagged RASSF and VENUS-tagged GTPase; lysis in 20 mM Tris-HCl pH 7.5, 150 mM NaCl, 5 mM MgCl2, 10% glycerol, 1% Triton X-100, 1 mM DTT; anti-FLAG on Protein G Sepharose 1 h, three washes; blot with anti-GFP.

Assay [10] concerns the target GST-tagged RASSF5 RA domain (human) (UniProt Q8WWW0). The assay is described as follows: pull-down; systematic screen: 2 µM purified GST-tagged RBD/RA domain (or GST alone) and glutathione beads incubated 30 min with HEK 293T lysate expressing a VENUS-tagged GTPase; Bio-Spin columns on a vacuum manifold, washed three times with lysis buffer (20 mM Tris-HCl pH 7.5, 150 mM NaCl, 5 mM MgCl2, 10% glycerol, 1% Triton X-100, 1% NP-40, 1 mM DTT); Western blot; GST-alone signal subtracted; heatmap from two replicates; only the target purified.

Assay [11] concerns the target T3, full-length FLAG-RASSF4 (human) (UniProt Q9H2L5).
T3 sequence: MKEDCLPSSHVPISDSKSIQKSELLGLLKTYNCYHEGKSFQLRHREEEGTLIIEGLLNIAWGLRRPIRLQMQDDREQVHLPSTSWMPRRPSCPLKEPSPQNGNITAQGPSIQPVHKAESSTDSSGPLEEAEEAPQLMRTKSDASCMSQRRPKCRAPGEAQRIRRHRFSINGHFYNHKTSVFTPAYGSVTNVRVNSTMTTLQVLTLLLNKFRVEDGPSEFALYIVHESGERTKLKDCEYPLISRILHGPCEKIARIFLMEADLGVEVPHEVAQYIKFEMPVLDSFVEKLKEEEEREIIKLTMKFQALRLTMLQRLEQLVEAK
The assay is described as follows: co-IP; HEK 293T co-transfected with FLAG-tagged RASSF and VENUS-tagged GTPase; lysis in 20 mM Tris-HCl pH 7.5, 150 mM NaCl, 5 mM MgCl2, 10% glycerol, 1% Triton X-100, 1 mM DTT; anti-FLAG on Protein G Sepharose 1 h, three washes; blot with anti-GFP.

No constants are given. Whether binding was seen depends on the method and setting. For part of these data: Binding calls can cover weak binding; strength is not graded here. For part of these data: In cells and extracts the contact can be indirect. For part of these data: Sequences can lack the tags named with a protein.

Consider “VENUS-tagged, mutationally activated RASL10B (from UniProt Q96S79)”, for which the binding entry in [1] and in assay [2] was “binds” each time.
In the case of “6xHis-MIRO1-nGTPase (1-180) (from UniProt Q8IXI2 1-180) (domain or fragment)”, the binding result in assay [3] is on record as “binds”; in [4] it was “binds”; in [5], “no binding (tested: 50 µM 6xHis-GTPase with 10 µM GST-RA)”.
“VENUS-tagged, mutationally activated RHOF (from UniProt Q9HBH0)”: the binding entry in assay [1] and in assay [6] was “binds” throughout.
Consider “VENUS-tagged, mutationally activated GEM (from UniProt P55040)”, for which the binding entry in assay [7] and in assay [2] was “binds” in each case.
With “VENUS-tagged RRAS S27N (from UniProt P10301)”, the binding result in assay [8] is reported as “binds”.
Consider “VENUS-tagged, mutationally activated RRAD (from UniProt P55042)”, for which the binding result in assay [7] and in [2] was “binds” throughout.
As to “VENUS-tagged, mutationally activated RASD2 (from UniProt Q96D21)”, the binding result in assay [7], in [1], in assay [9] and in assay [2] was “binds” in each case.
“VENUS-tagged, mutationally activated ARL5C (from UniProt A6NH57)”: the binding result in assay [10], in assay [7] and in assay [1] was “binds” in each case.
With “VENUS-tagged, mutationally activated ARL15 (from UniProt Q9NXU5)”, the binding result in assay [7] is “binds”.
As for “6xHis-MIRO2-nGTPase (1-180) (from UniProt Q8IXI1 1-180) (domain or fragment)”, the binding entry was “binds” in assay [3], “binds” in assay [4] and “no binding (tested: 50 µM 6xHis-GTPase with 10 µM GST-RA)” in assay [5].
As for “VENUS-tagged, mutationally activated ARL4C (from UniProt P56559)”, the binding entry in assay [10] is recorded as “binds weakly”; in [7], “binds”; in assay [1] it was “binds”; in assay [6], “binds”.
As to “VENUS-tagged, mutationally activated REM1 (from UniProt O75628)”, the binding result in assay [7], in [11], in [9] and in assay [2] was “binds” throughout.
With “VENUS-tagged, mutationally activated ARL10 (from UniProt Q8N8L6)”, the binding entry in [7] was “binds”.
Turning to “VENUS-tagged MIRO1-nGTPase domain (human) (domain or fragment)”, the binding entry in assay [11] and in assay [9] was “binds” in each case.
As to “VENUS-tagged, mutationally activated ARL11 (from UniProt Q969Q4)”, the binding result is “binds weakly” in [10], “binds” in [7] and “binds” in assay [1].
Take “VENUS-tagged, mutationally activated RASL12 (from UniProt Q9NYN1)”: the binding entry in assay [7] and in assay [2] was “binds” in each case.
For the substance “VENUS-tagged, mutationally activated ARL3 (from UniProt P36405)”, in [7], the binding result is recorded as “binds”.
With “VENUS-tagged, mutationally activated RASL10A (from UniProt Q92737)”, the binding entry in assay [7], in [6], in assay [11], in assay [9] and in assay [2] was “binds” each time.
Take “VENUS-tagged MIRO2-nGTPase domain (human) (domain or fragment)”: the binding entry in assay [11] and in assay [9] was “binds” each time.
“VENUS-tagged, mutationally activated DIRAS1 (from UniProt O95057)”: the binding entry in assay [6] is given as “binds”.
In the case of “VENUS-tagged, mutationally activated ARL5B (from UniProt Q96KC2)”, the binding result in assay [7] was “binds”.
Turning to “VENUS-tagged, mutationally activated NKIRAS2 (from UniProt Q9NYR9)”, the binding result in assay [7], in [6], in assay [11] and in assay [2] was “binds” throughout.
In the case of “VENUS-tagged, mutationally activated REM2 (from UniProt Q8IYK8)”, the binding entry in assay [7], in [1], in assay [6], in assay [11], in [9] and in [2] was “binds” throughout.
“VENUS-tagged, mutationally activated ARL13B (from UniProt Q3SXY8)”: the binding result in assay [7] is listed as “binds”.
